Measured values published in PubChem BioAssay AID540256 (National Center for Advancing Translational Sciences (NCATS), 2011).
Screen size: about 300,000 compounds; about 3,700 (1.2%) were called active. Inconclusive results, whose numbers are uncertain, are shown with a selection of clear calls. Calls follow the shape of the full dose curve; tested in HEK293 cells. Potencies beside an inconclusive call are fits to weak or partial responses and may not hold up.

Test: qHTS for Inhibitors of binding or entry into cells for Lassa Virus; also: nearly all actives have a fitted effect of over 50% in size
Conditions: Lassa virus pseudotype entry inhibition, cell reporter; activity change, negative = inhibition: at 37.9 µM (top of the series) unless noted
% is scaled to controls: 0 for no effect and ±100 for the full control effect; potency is read from the fitted curve at half-maximal effect.

Row | SMILES | Potency | activity change, negative = inhibition
1 | CCN(CC1CCCN(CCc2cccc(F)c2)C1)C(=O)c1cc2ccccc2o1 (stereo not given) | inconclusive: 10 µM [inhibitor, partial curve, poor fit] | –
2 | CC(CNC(=O)Cn1ccc2cc(S(=O)(=O)N3CCCC3)ccc21)c1ccccc1 (stereo not given) | inconclusive: 14.1 µM [inhibitor, partial curve, poor fit] | –
3 | CCn1ncc(Cl)c1C(=O)NC(=S)Nc1ccccc1Br | – | inactive: -22.5%
4 | O=C(Nc1ccc2oc(-c3cccc4c(Br)cccc34)nc2c1)c1cccc(Cl)c1 | – | inactive: -1.61% [at 46.1 µM]
5 | Cc1ccc(Cl)cc1NC(=S)N(CCN(C)C)Cc1cccs1 | inconclusive: 35.5 µM [inhibitor, single point] | –
6 | CCN(CC)S(=O)(=O)c1ccc(N2CCCC2)c(C(=O)OCC(=O)/C(C#N)=C(\C)N)c1 | inconclusive: 29.1 µM [inhibitor, single point] | –
7 | Cc1ccc(-c2n[nH]c(=S)n2/N=C/c2c(C)[nH]n(-c3ccccc3)c2=O)cc1 | – | inactive: 6.76% [at 46.1 µM]
8 | Cc1ccc(NC(=O)Cc2noc3ccccc23)cc1 | inconclusive: 10.3 µM [activator, partial curve, poor fit] | –
9 | Cc1csc(=O)n1CCC(=O)OCC(=O)Nc1ccc(F)c(F)c1F | – | inactive: 15.7%
10 | COc1ccc(OC)c(-c2csc(NC(=O)Cc3cccs3)n2)c1 | active: 0.316 µM | –
11 | CN(C(=O)C1CCOC1)c1nnc(-c2ccccn2)s1 (stereo not given) | inconclusive: 3.16 µM [activator, single point] | –
12 | CC(C)(C)C1CCC(=NOC(=O)c2ccc(F)cc2)CC1 (stereo not given) | – | inactive: -21.2%
13 | CC(C)Cn1cc(C(=O)N2CCN(c3ccccn3)CC2)c2c3ccccc3n(C)c2c1=O | active: 6.51 µM | –
14 | O=C(CNC(=O)c1ccccc1)OCC(=O)N1N=C(c2ccc(Cl)cc2)CC1c1ccco1 (stereo not given) | – | inactive: -11.8%
15 | Cc1cccn2c(=O)c3cc(C#N)c(=NC(=O)c4cccs4)n(CCCOC(C)C)c3nc12 | inconclusive: 5.62 µM [inhibitor, partial curve, poor fit] | –
16 | COc1ccc(N(CC(=O)N2CCN(c3cccc(Cl)c3)CC2)S(=O)(=O)c2c(C)noc2C)cc1 | inconclusive: 2.24 µM [inhibitor, partial curve, poor fit] | –
17 | Cc1ccc(NC(=O)c2ccccc2NS(=O)(=O)c2ccc(F)cc2)cc1S(=O)(=O)N1CCCCC1 | inconclusive: 22.4 µM [inhibitor, partial curve, poor fit] | –
18 | O=C(c1c(F)cccc1F)N1CCCc2ccccc21 | inconclusive: 0.631 µM [inhibitor, partial curve, poor fit] | –
19 | CC(Sc1nnc(Cc2cccs2)n1C1CC1)C(=O)NC1CCS(=O)(=O)C1 (stereo not given) | inconclusive: 1.12 µM [activator, single point] | –
20 | COC(=O)c1cc2n(n1)CCN(Cc1ccccc1Cl)C2=O | – | inactive: 3.44%
21 | CCC1(c2ccc(F)cc2)NC(=O)N(CC(=O)Nc2cccc(S(=O)(=O)N3CCCCC3)c2)C1=O (stereo not given) | – | inactive: -9.79%
22 | CCOc1ccc(N(CC(=O)Nc2ccccc2C(=O)N2CCCC2)S(C)(=O)=O)cc1 | – | inactive: -3.2%
23 | Cc1ccc(C(=O)NCc2ccc(Cl)cc2)o1 | – | inactive: 8.4%
24 | CC(C)(C)c1ccc(NC(=O)N2CCCN(c3c(Cl)cncc3Cl)CC2)cc1 | inconclusive: 0.316 µM [inhibitor, full curve] | –

Row | SMILES | Potency | activity change, negative = inhibition
25 | C=CCNC(=S)N/N=C/c1ccc(C)c([N+](=O)[O-])c1 | inconclusive: 10 µM [inhibitor, partial curve] | –
26 | COc1ccc(NP(=O)(Oc2ccccc2OC)Oc2ccccc2OC)cc1 | inconclusive: 6.31 µM [inhibitor, full curve] | –
27 | Cc1cccc(NC(=O)CNC(=O)CSc2nc(N)cc(N)n2)c1C | – | inactive: 14.4%
28 | CCOC(=O)c1sc2ncnc(N3CCN(C(=O)OCC)CC3)c2c1C | inconclusive: 25.1 µM [inhibitor, single point] | –
29 | Nc1nonc1-n1nnc(C(=O)N/N=C/C2CCCCC2)c1-c1ccccc1 | inconclusive: 3.98 µM [activator, partial curve, poor fit] | –
30 | CC(C)C(c1nnnn1Cc1ccc(F)cc1)N1CCN(c2ccc(O)cc2)CC1 (stereo not given) | inconclusive: 6.31 µM [inhibitor, partial curve] | –
31 | Cc1cc2c(=Cc3ccc(N(C)C)cc3)c3ccccc3n2[n+]1C | active: 2.24 µM | –
32 | Cc1ccc(-n2nc(C(=O)N(C)c3ccccc3Cl)c3c4ccccc4n(C)c3c2=O)cc1 | – | inactive: -27.3% [at 46.1 µM]
33 | CN(C)CCCNc1c2ccccc2nc2ccccc12 | inconclusive: 11.2 µM [inhibitor, partial curve] | –
34 | CCOC(=O)C1(Cc2cccc(OC)c2)CCN(C/C=C/c2ccccc2)CC1 | inconclusive: 15.8 µM [inhibitor, single point] | –
35 | COCCn1c(CN2CCN(C(c3ccccc3)c3ccccc3)CC2)nc2c1c(=O)n(C)c(=O)n2C | inconclusive: 0.631 µM [inhibitor, full curve, poor fit] | –
36 | Cc1ccc(NC(=O)Cn2cc(S(=O)(=O)Cc3ccccc3)c3ccccc32)cc1C | inconclusive: 35.5 µM [inhibitor, single point] | –
37 | Cc1ccccc1-c1nc(CS(=O)CC(=O)N2CCC3(CC2)OCCO3)c(C)o1 (stereo not given) | – | inactive: -6.26%
38 | CCc1ccc(S(=O)(=O)c2cn(C)c3ccc(C)cc3c2=O)cc1 | – | inactive: -2.74% [at 46.1 µM]
39 | C/C(CCc1ccc2c(c1)OCO2)=N\N=C1\NC(=O)CC(C(=O)Nc2ccc(Cl)cc2)S1 (stereo not given) | inconclusive: 23.1 µM [activator, single point] | –
40 | Cc1cccc(C(=O)c2cn[nH]c2-c2ccc(C)cc2O)c1 | – | inactive: -1.23%
41 | CCc1c(-c2ccccc2)nc2sc3c(c2c1N)CCCC3 | inconclusive: 5.62 µM [inhibitor, single point] | –
42 | CNC(=S)Nc1cccc(-c2cnc3ccccc3n2)c1 | inconclusive: 1.12 µM [activator, partial curve, poor fit] | –
43 | Oc1ccc(C2CNCc3sccc32)cc1O (stereo not given) | – | inactive: 8.08%
44 | CCOC(=O)c1ccc(N2C(=O)c3n[nH]c(C)c3C2c2ccc(CC)cc2)cc1 (stereo not given) | – | inactive: 19.9% [at 46.1 µM]
45 | COc1cc(NC(=S)N2CCc3ccccc3C2)cc(OC)c1 | – | inactive: 13.5% [at 46.1 µM]
46 | Cc1cc(C(=O)OCC(=O)NCCC(C)C)c2ccccc2n1 | inconclusive: 16.4 µM [activator, single point] | –
47 | C[C@H](NC(=O)OC(C)(C)C)c1nnc(SCc2ccc(Cl)cc2Cl)o1 | inconclusive: 1.12 µM [inhibitor, partial curve, poor fit] | –
48 | Cc1ccc2[nH]c3c(c2c1)CN(C(=O)CN1c2ccc(F)cc2CCC1C)CC3 (stereo not given) | inconclusive: 16.4 µM [inhibitor, single point] | –

Row | SMILES | Potency | activity change, negative = inhibition
49 | CCC(=O)c1ccc(OCC(O)Cn2nnc3ccccc32)cc1 (stereo not given) | – | inactive: 27.4%
50 | COc1ccc(OC)c(CNC(=O)C(C)n2nc(C)c3c(C)n(-c4ccccc4)nc3c2=O)c1 (stereo not given) | inconclusive: 35.5 µM [inhibitor, single point] | –
51 | CCn1c(SCc2ccccc2)nnc1-c1cccs1 | – | inactive: 6.92%
52 | Cc1sc(NC(=O)c2cccs2)c(C(=O)OC(C)C)c1C | – | inactive: -19.5%
53 | COc1ccc(NC(=O)CN2C(=O)C(c3ccccc3)=NC23CCC(C)CC3)cc1Cl (stereo not given) | – | inactive: -21.9% [at 46.1 µM]
54 | COc1ccc(OC)c(NC(=O)c2cccnc2Sc2ccccc2)c1 | inconclusive: 14.6 µM [inhibitor, partial curve] | –
55 | Cc1cc(C(=O)Nc2cccc(C(=O)O)c2)oc1C | active: 3.55 µM | –
56 | N=C(N)SCCc1ccc(CCSC(=N)N)cc1 | inconclusive: 23.1 µM [activator, single point] | –
57 | COc1ccccc1Nc1nc(N)nc(CSc2nc(C)cc(C)n2)n1 | – | inactive: -0.266%
58 | Cc1nc2ccccc2c(=O)n1/N=C/C=C/c1ccccc1 | inconclusive: 14.1 µM [activator, partial curve, poor fit] | –
59 | CC1CCCC(C)N1/N=C/c1ccccc1Br (stereo not given) | inconclusive: 11.2 µM [inhibitor, single point] | –
60 | COc1cccc(/C=N/Nc2nccnc2Cl)c1O | active: 2.06 µM | –
61 | CCC(=O)N1CCN(c2ccc(NC(=O)c3ccc4c(c3)OCCO4)cc2)CC1 | inconclusive: 8.91 µM [activator, partial curve, poor fit] | –
62 | CCC1CCCCN1S(=O)(=O)c1ccc(C(=O)Nc2nnc(-c3ccccc3Cl)o2)cc1 (stereo not given) | inconclusive: 17.8 µM [inhibitor, single point] | –
63 | O=C1CSC(c2cn(-c3ccccc3)nc2-c2cc3ccccc3oc2=O)N1Cc1cccnc1 (stereo not given) | inconclusive: 7.3 µM [inhibitor, partial curve] | –
64 | COc1ccc(CNC(=O)CCn2c(=O)c3cccn3c3ccc(F)cc32)cc1OC | inconclusive: 22.4 µM [inhibitor, single point] | –
65 | CC(C)c1ccc(NC(=O)C2CCC(CNS(=O)(=O)c3ccc4c(c3)CCCC(=O)N4)CC2)cc1 (stereo not given) | inconclusive: 35.5 µM [inhibitor, single point] | –
66 | CC(=O)n1nc(-c2ccccc2)nc1NCc1ccc(N(C)C)cc1 | inconclusive: 6.31 µM [activator, single point] | –
67 | CCOC(=O)c1sc(NC(=O)/C=C/c2cnn(CC)c2C)c(C(=O)OCC)c1C | inconclusive: 20.6 µM [inhibitor, single point] | –
68 | Cc1ccc(/C=C2/SC(=S)N(C3CCCCC3)C2=O)o1 | – | inactive: 10.6%
69 | CCOc1ccc(-c2nnc(SCC(=O)NC3CCCCC3)nc2-c2ccc(OCC)c(OC)c2)cc1OC | inconclusive: 15.8 µM [activator, single point] | –
70 | O=C(OCc1cn([C@H]2C[C@H](c3ccc(Cl)cc3)N(C(=O)C3CCCCC3)C[C@H]2O)nn1)c1ccccc1 | inconclusive: 0.0028 µM [activator, full curve, poor fit] | –
